From the supplement of paper PMC11006884
The list shows a part of the results, in another mix than the full data.

Protein sequences, listed by entry. Tags and fused reporters are not part of them. Lines headed by an entry give the natural chain unless they say otherwise; changes in a name come on top.
UniProt P14923: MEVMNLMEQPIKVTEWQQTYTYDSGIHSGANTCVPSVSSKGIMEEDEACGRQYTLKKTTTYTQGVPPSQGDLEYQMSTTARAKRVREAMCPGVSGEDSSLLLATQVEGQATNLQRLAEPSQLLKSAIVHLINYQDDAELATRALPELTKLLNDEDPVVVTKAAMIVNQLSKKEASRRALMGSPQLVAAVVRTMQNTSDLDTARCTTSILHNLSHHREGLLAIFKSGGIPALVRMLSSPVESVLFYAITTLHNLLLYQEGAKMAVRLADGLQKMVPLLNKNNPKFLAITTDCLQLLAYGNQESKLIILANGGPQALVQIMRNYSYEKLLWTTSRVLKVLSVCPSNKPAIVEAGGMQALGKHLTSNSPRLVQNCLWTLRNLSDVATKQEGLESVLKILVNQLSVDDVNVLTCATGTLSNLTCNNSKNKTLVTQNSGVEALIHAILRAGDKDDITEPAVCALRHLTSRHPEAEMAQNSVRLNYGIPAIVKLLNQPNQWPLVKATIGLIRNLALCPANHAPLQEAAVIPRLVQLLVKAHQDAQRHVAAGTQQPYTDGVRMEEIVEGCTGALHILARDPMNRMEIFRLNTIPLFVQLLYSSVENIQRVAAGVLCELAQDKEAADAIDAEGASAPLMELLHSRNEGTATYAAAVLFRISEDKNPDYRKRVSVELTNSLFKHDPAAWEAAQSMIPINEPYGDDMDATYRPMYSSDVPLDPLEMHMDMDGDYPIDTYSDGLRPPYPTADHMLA
UniProt P13489: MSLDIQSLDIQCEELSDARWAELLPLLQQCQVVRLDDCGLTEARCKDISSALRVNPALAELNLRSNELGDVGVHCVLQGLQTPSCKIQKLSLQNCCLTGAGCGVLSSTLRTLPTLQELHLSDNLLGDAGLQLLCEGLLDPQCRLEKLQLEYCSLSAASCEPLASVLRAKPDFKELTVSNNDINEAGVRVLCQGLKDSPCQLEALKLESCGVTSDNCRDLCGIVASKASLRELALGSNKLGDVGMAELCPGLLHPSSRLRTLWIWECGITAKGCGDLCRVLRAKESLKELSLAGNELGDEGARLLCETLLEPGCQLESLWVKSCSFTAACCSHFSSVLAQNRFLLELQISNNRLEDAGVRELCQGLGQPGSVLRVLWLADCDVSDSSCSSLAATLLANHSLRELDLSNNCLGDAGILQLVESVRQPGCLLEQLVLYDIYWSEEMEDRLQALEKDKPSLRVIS
UniProt P14625, whole entry, looked up: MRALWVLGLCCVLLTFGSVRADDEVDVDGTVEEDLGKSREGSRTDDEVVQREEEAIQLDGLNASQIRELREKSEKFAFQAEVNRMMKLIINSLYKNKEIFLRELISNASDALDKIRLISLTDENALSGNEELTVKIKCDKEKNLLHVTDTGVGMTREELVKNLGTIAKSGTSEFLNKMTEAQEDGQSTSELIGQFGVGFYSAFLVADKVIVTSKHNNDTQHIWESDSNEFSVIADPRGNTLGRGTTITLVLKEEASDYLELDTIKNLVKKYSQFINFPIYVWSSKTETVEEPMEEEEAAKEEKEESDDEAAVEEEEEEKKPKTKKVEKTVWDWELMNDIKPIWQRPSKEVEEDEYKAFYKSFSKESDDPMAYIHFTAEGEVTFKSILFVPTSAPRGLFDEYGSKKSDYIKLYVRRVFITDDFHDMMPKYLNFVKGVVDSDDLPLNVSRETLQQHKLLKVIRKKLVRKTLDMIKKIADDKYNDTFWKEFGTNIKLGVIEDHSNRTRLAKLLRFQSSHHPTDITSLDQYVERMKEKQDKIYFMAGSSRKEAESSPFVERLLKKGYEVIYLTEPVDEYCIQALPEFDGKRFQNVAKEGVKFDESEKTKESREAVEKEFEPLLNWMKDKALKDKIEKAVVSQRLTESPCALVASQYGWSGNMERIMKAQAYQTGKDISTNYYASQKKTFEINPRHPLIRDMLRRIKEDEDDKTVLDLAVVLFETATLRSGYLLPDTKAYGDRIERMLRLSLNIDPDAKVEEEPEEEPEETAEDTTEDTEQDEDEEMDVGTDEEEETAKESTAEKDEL
UniProt P14866: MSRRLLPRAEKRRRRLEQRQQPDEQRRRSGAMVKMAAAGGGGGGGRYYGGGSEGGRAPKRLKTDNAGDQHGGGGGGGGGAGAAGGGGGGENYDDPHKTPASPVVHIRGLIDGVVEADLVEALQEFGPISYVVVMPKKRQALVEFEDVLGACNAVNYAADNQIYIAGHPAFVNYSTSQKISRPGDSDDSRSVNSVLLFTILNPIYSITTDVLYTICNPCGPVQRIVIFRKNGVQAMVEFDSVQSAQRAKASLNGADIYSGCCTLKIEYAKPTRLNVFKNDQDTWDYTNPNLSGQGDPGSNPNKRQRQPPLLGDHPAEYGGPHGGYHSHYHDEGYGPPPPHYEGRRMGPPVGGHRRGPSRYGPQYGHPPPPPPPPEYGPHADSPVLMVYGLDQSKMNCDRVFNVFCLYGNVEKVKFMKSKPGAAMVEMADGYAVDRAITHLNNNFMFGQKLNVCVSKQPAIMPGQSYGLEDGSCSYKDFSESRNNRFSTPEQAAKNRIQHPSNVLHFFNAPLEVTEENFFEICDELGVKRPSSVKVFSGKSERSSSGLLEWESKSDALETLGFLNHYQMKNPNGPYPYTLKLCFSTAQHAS
UniProt P17812: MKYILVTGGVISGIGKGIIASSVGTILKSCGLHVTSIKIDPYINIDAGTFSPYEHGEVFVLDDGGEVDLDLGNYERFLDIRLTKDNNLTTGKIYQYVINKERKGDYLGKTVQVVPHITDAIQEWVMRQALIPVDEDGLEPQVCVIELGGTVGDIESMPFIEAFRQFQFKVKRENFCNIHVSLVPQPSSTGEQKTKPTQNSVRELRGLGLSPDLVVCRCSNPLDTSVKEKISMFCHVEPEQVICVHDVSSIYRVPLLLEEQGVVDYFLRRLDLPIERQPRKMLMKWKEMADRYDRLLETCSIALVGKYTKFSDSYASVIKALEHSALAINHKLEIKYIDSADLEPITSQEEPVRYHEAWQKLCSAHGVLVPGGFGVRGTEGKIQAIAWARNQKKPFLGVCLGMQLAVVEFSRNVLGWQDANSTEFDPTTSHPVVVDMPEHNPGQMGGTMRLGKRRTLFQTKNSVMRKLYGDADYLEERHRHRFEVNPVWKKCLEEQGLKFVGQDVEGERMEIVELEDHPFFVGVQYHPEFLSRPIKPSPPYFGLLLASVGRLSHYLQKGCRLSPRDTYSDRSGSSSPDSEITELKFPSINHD
UniProt P08047, whole entry, looked up: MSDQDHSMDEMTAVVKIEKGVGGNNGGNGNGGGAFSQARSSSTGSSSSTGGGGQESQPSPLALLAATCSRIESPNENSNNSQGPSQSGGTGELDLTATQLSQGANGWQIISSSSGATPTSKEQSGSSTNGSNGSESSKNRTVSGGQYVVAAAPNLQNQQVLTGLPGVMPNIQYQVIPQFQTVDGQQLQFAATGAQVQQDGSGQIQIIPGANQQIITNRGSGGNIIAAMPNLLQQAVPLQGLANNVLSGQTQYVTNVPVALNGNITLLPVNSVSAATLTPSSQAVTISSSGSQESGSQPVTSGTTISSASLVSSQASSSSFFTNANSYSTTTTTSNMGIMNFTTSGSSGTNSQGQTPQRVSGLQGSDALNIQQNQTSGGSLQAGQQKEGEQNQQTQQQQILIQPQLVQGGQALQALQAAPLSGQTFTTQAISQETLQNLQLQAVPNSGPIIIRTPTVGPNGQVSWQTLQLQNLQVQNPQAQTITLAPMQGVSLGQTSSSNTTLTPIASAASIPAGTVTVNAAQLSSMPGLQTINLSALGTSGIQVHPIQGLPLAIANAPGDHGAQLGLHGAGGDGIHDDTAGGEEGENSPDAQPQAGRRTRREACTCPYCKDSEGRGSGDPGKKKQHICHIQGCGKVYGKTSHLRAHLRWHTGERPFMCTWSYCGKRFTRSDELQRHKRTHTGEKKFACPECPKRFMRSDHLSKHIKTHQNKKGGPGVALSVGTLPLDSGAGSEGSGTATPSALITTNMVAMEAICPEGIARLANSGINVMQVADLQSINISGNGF
UniProt P09960: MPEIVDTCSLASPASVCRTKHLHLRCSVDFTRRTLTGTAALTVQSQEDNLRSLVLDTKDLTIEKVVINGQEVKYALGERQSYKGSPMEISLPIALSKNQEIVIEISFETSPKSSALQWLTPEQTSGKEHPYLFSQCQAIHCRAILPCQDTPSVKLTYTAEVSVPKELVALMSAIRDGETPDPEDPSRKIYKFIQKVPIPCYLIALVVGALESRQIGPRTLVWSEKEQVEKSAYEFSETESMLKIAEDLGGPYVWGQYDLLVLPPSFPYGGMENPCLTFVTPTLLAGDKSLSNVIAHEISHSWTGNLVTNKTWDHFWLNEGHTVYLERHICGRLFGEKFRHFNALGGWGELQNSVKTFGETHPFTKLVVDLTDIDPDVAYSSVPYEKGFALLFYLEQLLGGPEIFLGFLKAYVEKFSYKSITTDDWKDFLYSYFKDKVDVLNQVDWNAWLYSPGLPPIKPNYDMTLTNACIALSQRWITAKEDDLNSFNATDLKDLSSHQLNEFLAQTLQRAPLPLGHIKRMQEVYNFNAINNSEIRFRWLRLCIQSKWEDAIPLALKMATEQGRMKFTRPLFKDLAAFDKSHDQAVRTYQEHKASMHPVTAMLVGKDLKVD
UniProt P09382, whole entry, looked up: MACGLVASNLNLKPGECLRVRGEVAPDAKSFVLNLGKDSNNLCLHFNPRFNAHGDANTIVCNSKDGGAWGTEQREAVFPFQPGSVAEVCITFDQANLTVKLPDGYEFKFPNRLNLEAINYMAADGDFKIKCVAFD
UniProt P13984, whole entry: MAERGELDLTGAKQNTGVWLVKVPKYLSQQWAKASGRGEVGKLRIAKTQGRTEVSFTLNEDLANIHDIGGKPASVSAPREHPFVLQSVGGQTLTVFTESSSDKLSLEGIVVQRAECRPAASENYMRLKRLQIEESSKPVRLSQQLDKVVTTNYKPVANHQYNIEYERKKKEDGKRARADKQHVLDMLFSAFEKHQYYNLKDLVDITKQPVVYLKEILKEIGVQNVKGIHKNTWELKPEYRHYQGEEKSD
UniProt P12955: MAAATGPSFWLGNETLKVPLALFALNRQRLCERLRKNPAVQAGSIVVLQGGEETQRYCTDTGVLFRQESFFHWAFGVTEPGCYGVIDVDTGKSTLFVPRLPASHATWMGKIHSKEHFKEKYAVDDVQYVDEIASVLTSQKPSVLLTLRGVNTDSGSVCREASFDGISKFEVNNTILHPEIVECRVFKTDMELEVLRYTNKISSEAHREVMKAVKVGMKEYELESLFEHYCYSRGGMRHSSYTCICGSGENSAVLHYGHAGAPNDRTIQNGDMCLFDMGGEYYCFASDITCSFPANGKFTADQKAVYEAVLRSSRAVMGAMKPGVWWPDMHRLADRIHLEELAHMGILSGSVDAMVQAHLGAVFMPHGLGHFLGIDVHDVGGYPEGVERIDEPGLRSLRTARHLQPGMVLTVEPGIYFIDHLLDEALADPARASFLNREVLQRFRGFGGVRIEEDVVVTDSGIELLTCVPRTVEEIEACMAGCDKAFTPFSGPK
UniProt P12004, whole entry, looked up: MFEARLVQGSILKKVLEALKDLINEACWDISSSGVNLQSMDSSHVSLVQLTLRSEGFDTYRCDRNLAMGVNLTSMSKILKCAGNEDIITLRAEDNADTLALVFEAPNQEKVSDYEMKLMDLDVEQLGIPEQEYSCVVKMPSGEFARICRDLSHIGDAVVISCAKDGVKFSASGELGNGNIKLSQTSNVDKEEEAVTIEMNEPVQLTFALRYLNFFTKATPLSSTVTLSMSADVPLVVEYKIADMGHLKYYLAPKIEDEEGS
UniProt P11142, whole entry, looked up: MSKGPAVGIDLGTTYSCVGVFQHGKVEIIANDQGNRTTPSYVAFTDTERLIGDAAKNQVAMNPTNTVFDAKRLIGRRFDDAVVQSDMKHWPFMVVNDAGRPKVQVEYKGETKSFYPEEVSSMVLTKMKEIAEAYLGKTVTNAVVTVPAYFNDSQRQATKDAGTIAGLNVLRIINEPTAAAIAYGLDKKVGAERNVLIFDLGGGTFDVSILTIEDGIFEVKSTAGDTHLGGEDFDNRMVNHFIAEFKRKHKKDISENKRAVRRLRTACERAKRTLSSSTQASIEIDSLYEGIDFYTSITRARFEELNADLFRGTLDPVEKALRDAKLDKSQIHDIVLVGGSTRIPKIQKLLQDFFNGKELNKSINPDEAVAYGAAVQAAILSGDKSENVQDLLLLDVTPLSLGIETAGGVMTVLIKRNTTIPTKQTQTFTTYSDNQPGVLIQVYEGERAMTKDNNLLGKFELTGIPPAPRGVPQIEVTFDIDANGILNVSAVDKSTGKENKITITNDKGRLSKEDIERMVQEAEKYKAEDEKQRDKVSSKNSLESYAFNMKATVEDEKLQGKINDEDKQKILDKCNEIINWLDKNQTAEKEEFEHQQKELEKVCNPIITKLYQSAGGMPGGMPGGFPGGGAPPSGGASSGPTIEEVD

Compound: COC(=O)C#Cc1ccccc1 [methyl 3-phenylpropiolate]
Experiment: log2 ratio of iodoacetamide-alkyne labeling of the cysteine site, DMSO over compound (competition); higher = stronger covalent engagement of the cysteine by the compound, active = 1 or more
Conditions: 500 µM; treatment time 1 h; system: HEK293T cell lysate
How it was run: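 After 1 h at ambient temperature with vehicle or electrophile (500 µM), HEK293T lysate (2 mg/mL) was labelled for 1 h with iodoacetamide alkyne and clicked to sCIP-TMT reagents. Pooled samples were trypsin-digested overnight at 37 °C, streptavidin-enriched, acid-eluted and analysed by Orbitrap Eclipse LC-MS/MS with FAIMS, then quantified in FragPipe over three replicates with duplicate channels. A cysteine's log2 competition ratio is its mean control-channel over mean compound-channel reporter intensity. Cysteines quantified in only one replicate were not included.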

log2 ratio of iodoacetamide-alkyne labeling, inactive:
UniProt P14618_C49 -0.193
JUP C90 (UniProt P14923) 0.305
DSP C899 (UniProt P15924) -0.0233
HSP90AB1 C412 (UniProt P08238) 0.121
TPR C75 (UniProt P12270) 0.197
RNH1 C85 (UniProt P13489) 0.0022
ACAA1 C381 (UniProt P09110) 0.148
HSP90B1 C576 (UniProt P14625) 0.0628
ATP2A2 C447 (UniProt P16615) 0.163
HNRNPL C396 (UniProt P14866) -0.354
HSP90AB1 C366 (UniProt P08238) 0.0861
HNRNPL C581 (UniProt P14866) -0.0402
PDIA4 C555 (UniProt P13667) 0.315
EEF2 C651 (UniProt P13639) 0.0919
UniProt P08240_C363 -0.0254
UniProt P17812_C243 -0.235
SP1 C68 (UniProt P08047) 0.526
ESD C56 (UniProt P10768) -0.365
UniProt P17812_C176 0.03
EPB41 C224 (UniProt P11171) 0.181
LTA4H C8 (UniProt P09960) 0.273
LGALS1 C43 (UniProt P09382) -0.258
GTF2F2 C116 (UniProt P13984) 0.143
ACAA1 C123 (UniProt P09110) -0.0075
RNH1 C409 (UniProt P13489) 0.0147
PEPD C467 (UniProt P12955) 0.341
PRKAR1A C39 (UniProt P10644) 0.104
SNRPB C43 (UniProt P14678) 0.0808
EPRS C660 (UniProt P07814) 0.394
PCNA C135 (UniProt P12004) 0.0259
CNP C49 (UniProt P09543) -0.017
CKMT1A C62 (UniProt P12532) 0.126
MTHFD2 C145 (UniProt P13995) 0.057
EEF2 C557 (UniProt P13639) -0.298
PDIA4 C206 (UniProt P13667) 0.77
HSPA8 C17 (UniProt P11142) -0.158
DLAT C586 (UniProt P10515) 0.306

Two entries drawn at random from those above:
log2 ratio of iodoacetamide-alkyne labeling, inactive:
EPB41 C224 (UniProt P11171) 0.181
HSP90B1 C576 (UniProt P14625) 0.0628
